According to publication PMC6158211:
Results are given in words; binding and its absence hold for the method and conditions named. In cells and extracts the contact can be indirect. A yes stands for co-enrichment or nearness to the bait. Other partners may have been found. Sequences can lack the tags named with a protein.

The chains behind the UniProt entries cited, without tags or fusion partners. Residues count along the entry.
UniProt Q06481, residues 32-763: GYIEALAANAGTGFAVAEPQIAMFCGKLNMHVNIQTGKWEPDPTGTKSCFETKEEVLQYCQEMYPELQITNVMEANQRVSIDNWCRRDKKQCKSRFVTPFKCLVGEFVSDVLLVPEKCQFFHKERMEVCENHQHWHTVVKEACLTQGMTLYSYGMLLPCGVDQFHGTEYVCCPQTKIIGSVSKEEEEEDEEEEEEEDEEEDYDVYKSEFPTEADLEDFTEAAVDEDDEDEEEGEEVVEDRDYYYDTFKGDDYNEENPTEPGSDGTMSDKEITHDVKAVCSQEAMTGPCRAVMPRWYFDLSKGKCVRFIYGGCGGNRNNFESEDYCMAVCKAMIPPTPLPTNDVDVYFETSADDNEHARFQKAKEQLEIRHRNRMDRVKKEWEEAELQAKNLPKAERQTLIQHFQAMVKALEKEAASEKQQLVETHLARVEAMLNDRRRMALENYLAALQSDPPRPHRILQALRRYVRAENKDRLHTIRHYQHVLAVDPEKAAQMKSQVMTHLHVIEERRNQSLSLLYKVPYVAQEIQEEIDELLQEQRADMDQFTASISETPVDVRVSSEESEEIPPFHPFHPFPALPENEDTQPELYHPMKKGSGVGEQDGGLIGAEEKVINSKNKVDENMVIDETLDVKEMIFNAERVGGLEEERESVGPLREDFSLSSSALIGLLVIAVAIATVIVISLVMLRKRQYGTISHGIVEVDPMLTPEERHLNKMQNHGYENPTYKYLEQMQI
UniProt P36894, residues 24-532: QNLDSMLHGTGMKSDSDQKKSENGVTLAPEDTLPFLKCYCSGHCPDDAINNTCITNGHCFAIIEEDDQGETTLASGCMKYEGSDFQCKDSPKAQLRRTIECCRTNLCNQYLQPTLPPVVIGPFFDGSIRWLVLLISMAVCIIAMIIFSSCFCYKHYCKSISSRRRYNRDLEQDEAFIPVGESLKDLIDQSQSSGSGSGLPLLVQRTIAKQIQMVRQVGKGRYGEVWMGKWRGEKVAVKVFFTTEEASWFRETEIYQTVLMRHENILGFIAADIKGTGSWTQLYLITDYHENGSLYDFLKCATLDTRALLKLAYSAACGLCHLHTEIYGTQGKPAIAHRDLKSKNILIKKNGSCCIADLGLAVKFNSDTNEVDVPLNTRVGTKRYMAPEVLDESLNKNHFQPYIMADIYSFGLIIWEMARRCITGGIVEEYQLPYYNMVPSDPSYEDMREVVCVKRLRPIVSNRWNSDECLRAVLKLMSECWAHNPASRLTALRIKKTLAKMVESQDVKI
UniProt Q14653: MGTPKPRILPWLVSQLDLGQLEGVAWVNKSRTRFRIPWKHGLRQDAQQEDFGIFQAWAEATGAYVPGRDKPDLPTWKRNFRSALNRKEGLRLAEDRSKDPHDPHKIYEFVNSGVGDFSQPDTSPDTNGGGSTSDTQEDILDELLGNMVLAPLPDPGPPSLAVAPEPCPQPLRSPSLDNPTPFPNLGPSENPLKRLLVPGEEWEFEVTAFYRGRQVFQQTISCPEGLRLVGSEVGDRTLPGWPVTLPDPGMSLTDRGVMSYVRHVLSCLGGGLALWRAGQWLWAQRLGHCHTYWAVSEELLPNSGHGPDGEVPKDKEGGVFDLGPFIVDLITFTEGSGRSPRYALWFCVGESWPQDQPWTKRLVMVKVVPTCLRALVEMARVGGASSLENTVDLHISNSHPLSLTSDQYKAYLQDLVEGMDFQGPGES
UniProt O15118, residues 23-1278: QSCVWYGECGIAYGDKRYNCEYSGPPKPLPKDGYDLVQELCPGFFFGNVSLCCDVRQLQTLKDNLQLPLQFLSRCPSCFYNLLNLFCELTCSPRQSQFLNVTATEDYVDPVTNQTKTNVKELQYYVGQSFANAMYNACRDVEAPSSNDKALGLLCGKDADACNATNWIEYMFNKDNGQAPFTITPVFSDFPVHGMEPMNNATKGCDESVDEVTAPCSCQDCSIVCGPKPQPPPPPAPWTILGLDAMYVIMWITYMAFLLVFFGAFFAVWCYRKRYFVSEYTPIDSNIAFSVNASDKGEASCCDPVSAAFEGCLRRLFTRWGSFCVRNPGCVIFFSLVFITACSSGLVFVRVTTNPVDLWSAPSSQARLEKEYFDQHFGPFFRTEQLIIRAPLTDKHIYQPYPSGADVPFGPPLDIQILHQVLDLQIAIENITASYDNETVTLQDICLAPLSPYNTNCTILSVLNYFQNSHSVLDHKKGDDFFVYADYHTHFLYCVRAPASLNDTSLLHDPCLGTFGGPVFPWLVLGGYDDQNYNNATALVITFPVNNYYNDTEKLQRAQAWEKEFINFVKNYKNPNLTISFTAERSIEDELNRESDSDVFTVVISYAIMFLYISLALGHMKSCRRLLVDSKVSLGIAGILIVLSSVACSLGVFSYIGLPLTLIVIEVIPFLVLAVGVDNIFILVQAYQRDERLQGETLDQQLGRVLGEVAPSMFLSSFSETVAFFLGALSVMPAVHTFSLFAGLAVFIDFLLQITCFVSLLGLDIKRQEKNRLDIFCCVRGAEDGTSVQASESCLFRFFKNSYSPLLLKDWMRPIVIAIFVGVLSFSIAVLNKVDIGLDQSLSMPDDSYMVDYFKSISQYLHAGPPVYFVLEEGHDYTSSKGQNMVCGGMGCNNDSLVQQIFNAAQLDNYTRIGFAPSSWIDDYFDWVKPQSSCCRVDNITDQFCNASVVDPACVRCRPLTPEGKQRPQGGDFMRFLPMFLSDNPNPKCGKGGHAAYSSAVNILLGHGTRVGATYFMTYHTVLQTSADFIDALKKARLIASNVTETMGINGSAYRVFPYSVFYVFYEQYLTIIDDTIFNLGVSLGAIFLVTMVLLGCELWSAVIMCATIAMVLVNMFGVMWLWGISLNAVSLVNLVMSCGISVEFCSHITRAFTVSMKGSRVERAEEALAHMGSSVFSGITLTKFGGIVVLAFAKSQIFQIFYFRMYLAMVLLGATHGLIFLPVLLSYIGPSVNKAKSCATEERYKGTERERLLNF
UniProt Q13509: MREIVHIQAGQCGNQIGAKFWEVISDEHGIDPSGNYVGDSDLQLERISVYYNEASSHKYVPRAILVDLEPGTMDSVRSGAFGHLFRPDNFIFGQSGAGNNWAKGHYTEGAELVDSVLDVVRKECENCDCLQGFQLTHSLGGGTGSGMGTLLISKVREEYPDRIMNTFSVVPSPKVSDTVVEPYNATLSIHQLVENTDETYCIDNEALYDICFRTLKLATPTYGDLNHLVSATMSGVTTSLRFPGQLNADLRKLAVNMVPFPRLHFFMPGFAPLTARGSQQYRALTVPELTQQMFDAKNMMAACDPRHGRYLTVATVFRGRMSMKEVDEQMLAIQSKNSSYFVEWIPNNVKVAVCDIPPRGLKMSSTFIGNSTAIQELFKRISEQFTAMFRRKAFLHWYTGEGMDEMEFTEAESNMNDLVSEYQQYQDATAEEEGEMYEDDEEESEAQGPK
UniProt P07437: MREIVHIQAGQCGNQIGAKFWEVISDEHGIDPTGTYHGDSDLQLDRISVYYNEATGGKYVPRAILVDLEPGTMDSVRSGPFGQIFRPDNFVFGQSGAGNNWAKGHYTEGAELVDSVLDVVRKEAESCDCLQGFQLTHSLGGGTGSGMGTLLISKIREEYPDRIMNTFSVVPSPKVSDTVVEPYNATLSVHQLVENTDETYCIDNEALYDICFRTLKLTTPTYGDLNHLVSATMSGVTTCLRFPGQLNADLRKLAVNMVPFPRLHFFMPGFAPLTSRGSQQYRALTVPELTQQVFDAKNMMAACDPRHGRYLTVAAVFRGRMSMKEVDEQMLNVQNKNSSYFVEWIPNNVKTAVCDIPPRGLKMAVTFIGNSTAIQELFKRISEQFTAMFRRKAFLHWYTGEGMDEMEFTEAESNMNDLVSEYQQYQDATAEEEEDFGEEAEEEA
UniProt Q13873, residues 27-1038: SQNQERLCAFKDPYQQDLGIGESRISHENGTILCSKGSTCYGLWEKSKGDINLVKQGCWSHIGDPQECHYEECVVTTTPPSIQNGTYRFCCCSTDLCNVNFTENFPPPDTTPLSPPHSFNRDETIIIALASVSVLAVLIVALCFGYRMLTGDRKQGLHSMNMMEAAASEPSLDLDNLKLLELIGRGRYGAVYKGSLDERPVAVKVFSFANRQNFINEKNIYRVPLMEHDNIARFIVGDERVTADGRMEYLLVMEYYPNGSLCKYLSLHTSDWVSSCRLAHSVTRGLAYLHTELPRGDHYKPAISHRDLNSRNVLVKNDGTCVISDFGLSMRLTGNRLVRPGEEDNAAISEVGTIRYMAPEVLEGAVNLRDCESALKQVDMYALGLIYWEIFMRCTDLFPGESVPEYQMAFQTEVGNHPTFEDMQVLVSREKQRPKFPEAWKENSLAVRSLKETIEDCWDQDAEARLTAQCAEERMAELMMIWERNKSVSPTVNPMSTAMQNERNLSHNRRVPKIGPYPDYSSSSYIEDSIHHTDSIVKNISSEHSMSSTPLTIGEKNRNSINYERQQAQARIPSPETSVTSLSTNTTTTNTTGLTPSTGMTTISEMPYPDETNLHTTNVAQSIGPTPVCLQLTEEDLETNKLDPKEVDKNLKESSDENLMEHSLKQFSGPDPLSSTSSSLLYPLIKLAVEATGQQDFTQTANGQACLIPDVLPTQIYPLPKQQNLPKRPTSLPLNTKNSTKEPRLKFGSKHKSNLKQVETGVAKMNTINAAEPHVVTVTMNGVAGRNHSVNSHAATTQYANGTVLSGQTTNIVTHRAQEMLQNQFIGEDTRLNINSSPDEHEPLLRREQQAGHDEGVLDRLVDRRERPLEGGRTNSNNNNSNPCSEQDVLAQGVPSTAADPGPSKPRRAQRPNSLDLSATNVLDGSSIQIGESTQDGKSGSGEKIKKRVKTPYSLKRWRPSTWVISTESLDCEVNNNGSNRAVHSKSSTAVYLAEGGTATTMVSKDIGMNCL
UniProt P37173, residues 23-567: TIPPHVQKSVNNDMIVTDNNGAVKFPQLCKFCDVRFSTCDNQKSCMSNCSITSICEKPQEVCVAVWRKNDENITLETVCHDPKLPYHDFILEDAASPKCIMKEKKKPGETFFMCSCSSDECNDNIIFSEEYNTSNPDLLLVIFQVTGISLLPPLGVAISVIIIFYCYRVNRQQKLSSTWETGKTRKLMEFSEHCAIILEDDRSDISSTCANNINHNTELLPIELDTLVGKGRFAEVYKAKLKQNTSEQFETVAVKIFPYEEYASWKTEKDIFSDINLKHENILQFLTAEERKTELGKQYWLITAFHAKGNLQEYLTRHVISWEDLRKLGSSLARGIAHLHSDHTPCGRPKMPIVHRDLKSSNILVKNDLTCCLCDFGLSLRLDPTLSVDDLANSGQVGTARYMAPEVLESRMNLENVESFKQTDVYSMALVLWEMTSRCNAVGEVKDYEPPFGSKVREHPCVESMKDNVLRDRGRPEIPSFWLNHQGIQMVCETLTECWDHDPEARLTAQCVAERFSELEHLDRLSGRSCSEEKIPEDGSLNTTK
UniProt Q9BQE3: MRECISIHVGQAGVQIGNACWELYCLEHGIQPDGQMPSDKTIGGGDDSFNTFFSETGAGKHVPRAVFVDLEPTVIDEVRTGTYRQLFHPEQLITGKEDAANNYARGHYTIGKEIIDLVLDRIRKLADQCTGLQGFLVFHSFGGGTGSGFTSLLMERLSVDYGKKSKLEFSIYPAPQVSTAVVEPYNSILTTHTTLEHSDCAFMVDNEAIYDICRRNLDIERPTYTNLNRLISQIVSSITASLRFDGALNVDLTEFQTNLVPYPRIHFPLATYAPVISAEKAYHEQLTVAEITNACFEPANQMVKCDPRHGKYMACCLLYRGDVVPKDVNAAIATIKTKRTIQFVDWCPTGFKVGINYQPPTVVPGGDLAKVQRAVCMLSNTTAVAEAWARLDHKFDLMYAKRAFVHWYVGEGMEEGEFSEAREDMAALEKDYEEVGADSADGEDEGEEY
UniProt Q9BUF5: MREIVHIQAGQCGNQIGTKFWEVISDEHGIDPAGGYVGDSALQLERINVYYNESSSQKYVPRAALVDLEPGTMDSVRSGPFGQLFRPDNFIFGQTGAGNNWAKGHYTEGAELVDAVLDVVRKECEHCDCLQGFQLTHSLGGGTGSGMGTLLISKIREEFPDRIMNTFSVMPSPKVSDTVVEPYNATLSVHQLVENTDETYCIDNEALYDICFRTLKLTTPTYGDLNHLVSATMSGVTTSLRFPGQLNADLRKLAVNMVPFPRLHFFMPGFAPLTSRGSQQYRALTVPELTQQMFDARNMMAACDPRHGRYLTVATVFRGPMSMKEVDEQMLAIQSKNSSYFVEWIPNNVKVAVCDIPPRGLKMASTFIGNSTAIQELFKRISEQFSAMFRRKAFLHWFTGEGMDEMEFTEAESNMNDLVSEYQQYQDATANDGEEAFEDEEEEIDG

What follows are substances tested against T1, 3xFlag-UBL3 (wild-type ubiquitin-like 3 / membrane-anchored Ub-fold protein) (UniProt O95164) (assay: affinity purification with mass spectrometry; 3xFlag-UBL3, 3xFlag-UBL3C113/114A or 3xFlag empty vector expressed in MDA-MB-231 cells; 1% Triton buffer lysate, anti-Flag M2 affinity gel 16 h at 4 °C, on-bead digestion, LC-MS/MS with label-free quantification, triplicate pull-downs).
T1 sequence: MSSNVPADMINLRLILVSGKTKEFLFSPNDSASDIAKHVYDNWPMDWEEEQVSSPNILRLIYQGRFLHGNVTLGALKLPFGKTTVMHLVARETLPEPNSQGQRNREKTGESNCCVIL

Substance | binding
APLP2 (from UniProt Q06481 32-763) | binds
BMPR1A (from UniProt P36894 24-532) (receptor) | binds
IRF3 (from UniProt Q14653 1-427) | binds
NPC1 (from UniProt O15118 23-1278) | binds
RPTOR (from UniProt Q8N122 1-1335) | binds
TUBB2A (from UniProt Q13885 1-445) | binds
TUBB3 (from UniProt Q13509 1-450) | binds
TUBB4B (from UniProt P68371 1-445) | binds
TUBB (from UniProt P07437 1-444) | binds

Results, then the substance that gave them:

binding | Substance
binds | BMPR2 (from UniProt Q13873 27-1038) (receptor)
binds | IKBKG (from UniProt Q9Y6K9 1-419)
binds | KRAS (from UniProt P01116 1-189)
binds | NOTCH1 (from UniProt P46531 19-2555) (receptor)
binds | NOTCH2 (from UniProt Q04721 26-2471) (receptor)
binds | NOTCH3 (from UniProt Q9UM47 40-2321) (receptor)
binds | TGFBR2 (from UniProt P37173 23-567) (receptor)
binds | TUBA1C (from UniProt Q9BQE3 1-449)
binds | TUBA4A (from UniProt P68366 1-448)
binds | TUBB4A (from UniProt P04350 1-444)
binds | TUBB6 (from UniProt Q9BUF5 1-446)
binds | TUBB8 (from UniProt Q3ZCM7 1-444)
